One test concerns the target T1, human Aβ40 (human, UniProt P05067 672-711).
T1 construct: domain: Aβ1-40; also called Aβ1-40; amyloid-beta peptide 1-40
Description: plate binding assay, Abs (450nm), Aβ40 titrated 0-25 nM.

Amino acid sequences for entries named in this document (tags omitted). Residues count along the entry.
UniProt P05067, 672-711 limits assumed: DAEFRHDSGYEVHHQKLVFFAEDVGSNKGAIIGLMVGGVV

A further test deals with tPA (human, UniProt P00750 36-562, limits assumed). Description: plate binding assay, Abs (450nm), ligand titrated 0-200 nM on immobilized GAR-LRPIV.

B1: GAR-LRPIV (receptor)
chain: GARSNCTASQFVCKNDKCIPFWWKCDTEDDCGDHSDEPPDCPEFKCRPGQFQCSTGICTNPAFICDGDNDCQDNSDEANCDIHVCLPSQFKCTNTNRCIPGIFRCNGQDNCGDGEDERDCPEVTCAPNQFQCSITKRCIPRVWVCDRDNDCVDGSDEPANCTQMTCGVDEFRCKDSGRCIPARWKCDGEDDCGDGSDEPKEECDERTCEPYQFRCKNNRCVPGRWQCDYDNDCGDNSDEESCTPRPCSESEFSCANGRCIAGRWKCDGDHDCADGSDEKDCTPRCDMDQFQCKSGHCIPLRWRCDADADCMDGSDEEACGTGVRTCPLDEFQCNNTLCKPLAWKCDGEDDCGDNSDENPEECARFVCPPNRPFRCKNDRVCLWIGRQCDGTDNCGDGTDEEDCEPPTAHTTHCKDKKEFLCRNQRCLSSSLRCNMFDDCGDGSDEEDCSI
notes: Soluble, untagged cluster IV (CR21-CR31) of human LRP-1, secreted from CHO cells through a tPA signal peptide and purified on a GST-RAP column; also called wt-LRPIV; WT-LRPIV
The EC50 (read off the curve) is the concentration at which the effect is half-maximal. For the molecule B1, the “EC50 (read off the curve)” value in the test with human Aβ40 is about 2 nM. The binding result with tPA is given as “binds”.

The values above are taken from patent US20120201757A1 (published 2012).
